For the experiment, the system named is B6C3F1 mice, intracerebral ependymoblastoma, median survival T/C. The experiment can be described thus: NCI In Vivo Anticancer Drug Screen. Data for tumor model Ependymoblastoma (intracerebral) in B6C3F1 mice. The settings on record: T/C endpoint: median survival time, schedule: Q01DX001 (ip), vehicle: saline, higher T/C = longer survival. Here is the method: The antitumor activity of compounds was measured in mice bearing transplantable tumors. Survival or tumor size were measured and the results are expressed as the measurement made in the treated group (T) divided by the measurement made in the vehicle treated control group (C). The tumor model used in this assay is Ependymoblastoma (intracerebral) in B6C3F1 mice

Molecules are shown by their SMILES. The list does not hold the whole screen: it covers a few groups of compounds. Not every dose and run of a compound is shown. T/C is the treated group as % of the vehicle group. For survival time, the PubChem record calls one and a half times the control and up active, and a quarter to a half above the control has no call in these data; cut-offs in other NCI protocols can differ. Some entries show no survivor count and are marked so; the dose need not have been tolerated. Schedule codes are those of the source, read here as Q, the interval in days (D) or hours (H), X, the number of doses.

From PubChem BioAssay AID226 (DTP/NCI, 2004) come the findings set out here.

For `NC1CCCCC1.NP(=O)(O)N(CCCl)CCCl`, the T/C is 100 % of control [survivor count not shown] (dose: 40.0 mg/kg/injection), 98 % of control [survivor count not shown] (dose: 80.0 mg/kg/injection), 110 % of control [survivor count not shown] (dose: 160.0 mg/kg/injection) and 105 % of control [survivor count not shown] (dose: 320.0 mg/kg/injection).
